Consider two molecules from US20250092146A1, “ANTI-CCR8 ANTIBODIES, CONJUGATES, AND USES THEREOF” (Abilita Bio, Inc., priority 2023, published 2025).

Protein sequences, listed by entry. Tags and fused reporters are not part of them. Lines headed by an entry give the natural chain unless they say otherwise; changes in a name come on top.
UniProt P51685: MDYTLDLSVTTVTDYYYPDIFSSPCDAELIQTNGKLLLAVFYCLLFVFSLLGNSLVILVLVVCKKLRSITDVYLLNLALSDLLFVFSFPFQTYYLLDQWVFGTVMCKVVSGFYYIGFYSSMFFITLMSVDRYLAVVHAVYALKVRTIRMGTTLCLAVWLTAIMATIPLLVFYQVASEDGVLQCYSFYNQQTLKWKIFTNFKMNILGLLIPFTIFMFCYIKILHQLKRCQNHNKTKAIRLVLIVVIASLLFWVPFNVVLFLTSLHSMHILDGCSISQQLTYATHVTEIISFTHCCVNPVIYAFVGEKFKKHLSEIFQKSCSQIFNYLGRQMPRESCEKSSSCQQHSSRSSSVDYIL

The target in this assay is human CCR8 (hCCR8) (human) (UniProt P51685). Put plainly: flow cytometry on HEK293-hCCR8 cells, anti-VHH detection.

Residue numbers refer to the chain shown, from its start. No constants are given. Whether binding was seen depends on the method and setting. Some binding calls cover weakened binding; strength is not graded here.

B1: VHH-1 (VHH, not shown: small tags and cut ends)
VHH: QVQLQESGGGLVQAGGSLRLSCVASGSTSSIRRIGWYRQAPGKQRELVARFSSGGGTNYADFVKGRFTISGDNAKNTMYLQMNSLKPEDTAVYYCSARRLLGTSRVDYWGQGTQVTVSS
Take B1: the binding result is reported as “binds”.

B2: VHH-3 (VHH, not shown: small tags and cut ends)
VHH: B1 VHH with S96G
Turning to B2, the binding result is “binds”.
